Data: US9610363B2, “Methods for inhibiting starvation of a cell” (PRESIDENT AND FELLOWS OF HARVARD COLLEGE, priority 2009, dated 2017)

Assay: Blood glucose levels during treatment
Type: in vivo
Conditions: systemic administration, PDE-β−/− mice

Compound | blood glucose levels
CN(N=O)C(=O)N[C@H]1C(O)O[C@H](CO)[C@@H](O)[C@@H]1O (mixture of isomers) [streptozotocin] | increased blood glucose levels
insulin | increase in blood glucose levels
